# From patent publication US6372770B1, “Benzoxazoles” (Euro-Celtique, S.A., priority 1994, dated 2002)
# pIC50: −log10 of the molar value. Read-outs that look alike come from different tables or passages of the source. For at least one compound, name, drawing or mass did not settle the structure.
# System: T1, PDE IV
# T1 construct: PDE IV IC50; other: Type IV PDE isolated from bovine tracheal smooth muscle; rolipram run in the
# Experiment: Type IV PDE inhibition, hydrolysis of [3H]-cyclic AMP
# Format: biochemical, bovine
# From the text: The PDE IV inhibitory compounds of the present invention may be examined for their PDE IV inhibitory effects via the techniques set forth in the following examples, wherein the ability of the compounds to inhibit PDE IV isolated from bovine tracheal smooth muscle is set forth.
# The Type IV PDE is isolated from bovine tracheal smooth muscle using a procedure similar to that previously described by Silver, P. J. et al., Eur. J. Pharmacol. 150:85,1988.(1). Briefly, smooth muscle from bovine trachea is minced and homogenized using a polytron in 10 volumes of an extraction buffer containing 10 mM Tris-acetate (pH 7.5), 2 mM magnesium chloride, 1 mM dithiothreitol and 2,000 units/ml of aprotinin. This and all subsequent procedures are performed at 0-4° C. The homogenate is sonicated and then centrifuged at 48,000×g for 30 minutes. The resulting supernatant is applied to a DEAE Trisacryl M column previously equilibrated with sodium acetate and dithiothreitol. After applications of the sample, the column is washed with sodium acetate/dithiothreitol, after whlich the different forms of PDE are eluted from the column using a linear Tris-HCl/NaCl gradient. Fractions containing Type IV PDE are collected, dialyzed and concentrated to 14% of the original volume. […]
# Enzyme activity is assessed by measuring the hydrolysis of [^3H]-cyclic AMP, as described by Thompson, W. J. et al., Adv. […]
smiles,measurement,setting,value
"C=CCc1cc(Cl)cc2nc(Cc3ccc(OC)c(OC4CCCC4)c3)oc12 [Example 1, 7-Allyl-5-chloro-2-(3-cyclopentyloxy-4-methoxybenzyl)-benzoxazole]",pIC50,"Type IV PDE isolated from bovine tracheal smooth muscle, 0.2 μM cyclic AMP, read-out: PDE IV IC50",7.10
same,pIC50,"read-out: concentration which yields 50% inhibition of PDE IV (IC50), value of the description, rolipram run in the same assay",6.22
